Laboratory results from paper PMC4447969.
These are yes or no findings as the source states them, for the method shown. In cells and extracts the contact can be indirect. Some results given as binding are weak or reduced against the parent protein; the word gives no strength. Tags and fused reporters may be left off the sequences shown.

Target: T1, GST-Pdcd4-WT (UniProt Q53EL6)
T1 sequence: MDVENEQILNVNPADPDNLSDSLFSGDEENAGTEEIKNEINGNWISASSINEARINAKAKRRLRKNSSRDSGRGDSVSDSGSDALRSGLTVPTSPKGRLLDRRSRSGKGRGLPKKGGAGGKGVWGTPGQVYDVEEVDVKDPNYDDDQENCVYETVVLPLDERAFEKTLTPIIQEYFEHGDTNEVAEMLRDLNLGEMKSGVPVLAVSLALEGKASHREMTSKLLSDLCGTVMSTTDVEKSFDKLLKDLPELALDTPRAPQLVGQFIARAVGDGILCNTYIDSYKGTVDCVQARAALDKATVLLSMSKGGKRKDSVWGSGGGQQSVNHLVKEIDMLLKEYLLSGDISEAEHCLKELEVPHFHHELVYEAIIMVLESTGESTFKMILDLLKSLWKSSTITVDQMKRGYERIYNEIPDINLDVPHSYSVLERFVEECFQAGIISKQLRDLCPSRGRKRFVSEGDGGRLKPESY
Experiment: pull-down; lysate (1 mg, RIPA buffer) of HEK293T cells transfected with IBtkα-FLAG or mutants incubated 1 h at 4 °C with GST or GST-Pdcd4 proteins, then glutathione-Sepharose beads 1 h at 4 °C, three washes with RIPA buffer, Western blot with anti-FLAG; only the target purified

B1: IBtkα-FLAG (human inhibitor of Bruton's tyrosine kinase isoform α, aa 1–1352) (protein, UniProt Q9P2D0-1 1-1352)
chain: MSSPMPDCTSKCRSLKHALDVLSVVTKGSENQIKAFLSSHCYNAATIKDVFGRNALHLVSSCGKKGVLDWLIQKGVDLLVKDKESGWTALHRSIFYGHIDCVWSLLKHGVSLYIQDKEGLSALDLVMKDRPTHVVFKNTDPTDVYTWGDNTNFTLGHGSQNSKHHPELVDLFSRSGIYIKQVVLCKFHSVFLSQKGQVYTCGHGPGGRLGHGDEQTCLVPRLVEGLNGHNCSQVAAAKDHTVVLTEDGCVYTFGLNIFHQLGIIPPPSSCNVPRQIQAKYLKGRTIIGVAAGRFHTVLWTREAVYTMGLNGGQLGCLLDPNGEKCVTAPRQVSALHHKDIALSLVAASDGATVCVTTRGDIYLLADYQCKKMASKQLNLKKVLVSGGHMEYKVDPEHLKENGGQKICILAMDGAGRVFCWRSVNSSLKQCRWAYPRQVFISDIALNRNEILFVTQDGEGFRGRWFEEKRKSSEKKEILSNLHNSSSDVSYVSDINSVYERIRLEKLTFAHRAVSVSTDPSGCNFAILQSDPKTSLYEIPAVSSSSFFEEFGKLLREADEMDSIHDVTFQVGNRLFPAHKYILAVHSDFFQKLFLSDGNTSEFTDIYQKDEDSAGCHLFVVEKVHPDMFEYLLQFIYTDTCDFLTHGFKPRIHLNKNPEEYQGTLNSHLNKVNFHEDDNQKSAFEVYKSNQAQTVSERQKSKPKSCKKGKNIREDDPVRMLQTVAKKFDFSNLSSRLDGVRFENEKINVIAKNTGNKLKLSQKKCSFLCDVTMKSVDGKEFPCHKCVLCARLEYFHSMLSSSWIEASSCAALEMPIHSDILKVILDYLYTDEAVVIKESQNVDFICSVLVVADQLLITRLKEICEVALTEKLTLKNAAMLLEFAAMYSAKQLKLSCLQFIGLNMAALLEARSLDVLSDGVLKDLSEFYRKMIPAMDRRVITPYQDGPDISYLEVEDGDIFLKEEINMEQNHSETMFKKAKTKAKKKPRKRSDSSGGYNLSDIIQSPSSTGLLKSGKTNSVESLPELLTSDSEGSYAGVGSPRDLQSPDFTTGFHSDKIEAKVKPYVNGTSPVYSREDLKPWEKSPILKISAPQPIPSNRIDTTSSASWVAGSFSPVSPPVVDLRTIMEIEESRQKCGATPKSHLGKTVSHGVKLSQKQRKMIALTTKENNSGMNSMETVLFTPSKAPKPVNAWASSLHSVSSKSFRDFLLEEKKSVTSHSSGDHVKKVSFKGIENSQAPKIVRCSTHGTPGPEGNHISDLPLLDSPNPWLSSSVTAPSMVAPVTFASIVEEELQQEAALIRSREKPLALIQIEEHAIQDLLVFYEAFGNPEEFVIVERTPQGPLAVPMWNKHG
  binding: binds

B2: IBtkαΔN-FLAG (aa 307–1352) (domain or fragment, UniProt Q9P2D0 307-1352)
chain: MGLNGGQLGCLLDPNGEKCVTAPRQVSALHHKDIALSLVAASDGATVCVTTRGDIYLLADYQCKKMASKQLNLKKVLVSGGHMEYKVDPEHLKENGGQKICILAMDGAGRVFCWRSVNSSLKQCRWAYPRQVFISDIALNRNEILFVTQDGEGFRGRWFEEKRKSSEKKEILSNLHNSSSDVSYVSDINSVYERIRLEKLTFAHRAVSVSTDPSGCNFAILQSDPKTSLYEIPAVSSSSFFEEFGKLLREADEMDSIHDVTFQVGNRLFPAHKYILAVHSDFFQKLFLSDGNTSEFTDIYQKDEDSAGCHLFVVEKVHPDMFEYLLQFIYTDTCDFLTHGFKPRIHLNKNPEEYQGTLNSHLNKVNFHEDDNQKSAFEVYKSNQAQTVSERQKSKPKSCKKGKNIREDDPVRMLQTVAKKFDFSNLSSRLDGVRFENEKINVIAKNTGNKLKLSQKKCSFLCDVTMKSVDGKEFPCHKCVLCARLEYFHSMLSSSWIEASSCAALEMPIHSDILKVILDYLYTDEAVVIKESQNVDFICSVLVVADQLLITRLKEICEVALTEKLTLKNAAMLLEFAAMYSAKQLKLSCLQFIGLNMAALLEARSLDVLSDGVLKDLSEFYRKMIPAMDRRVITPYQDGPDISYLEVEDGDIFLKEEINMEQNHSETMFKKAKTKAKKKPRKRSDSSGGYNLSDIIQSPSSTGLLKSGKTNSVESLPELLTSDSEGSYAGVGSPRDLQSPDFTTGFHSDKIEAKVKPYVNGTSPVYSREDLKPWEKSPILKISAPQPIPSNRIDTTSSASWVAGSFSPVSPPVVDLRTIMEIEESRQKCGATPKSHLGKTVSHGVKLSQKQRKMIALTTKENNSGMNSMETVLFTPSKAPKPVNAWASSLHSVSSKSFRDFLLEEKKSVTSHSSGDHVKKVSFKGIENSQAPKIVRCSTHGTPGPEGNHISDLPLLDSPNPWLSSSVTAPSMVAPVTFASIVEEELQQEAALIRSREKPLALIQIEEHAIQDLLVFYEAFGNPEEFVIVERTPQGPLAVPMWNKHG
  binding: binds

B3: IBtkαΔBTB-FLAG (deletion of aa 564–836) (protein, UniProt Q9P2D0)
chain: MSSPMPDCTSKCRSLKHALDVLSVVTKGSENQIKAFLSSHCYNAATIKDVFGRNALHLVSSCGKKGVLDWLIQKGVDLLVKDKESGWTALHRSIFYGHIDCVWSLLKHGVSLYIQDKEGLSALDLVMKDRPTHVVFKNTDPTDVYTWGDNTNFTLGHGSQNSKHHPELVDLFSRSGIYIKQVVLCKFHSVFLSQKGQVYTCGHGPGGRLGHGDEQTCLVPRLVEGLNGHNCSQVAAAKDHTVVLTEDGCVYTFGLNIFHQLGIIPPPSSCNVPRQIQAKYLKGRTIIGVAAGRFHTVLWTREAVYTMGLNGGQLGCLLDPNGEKCVTAPRQVSALHHKDIALSLVAASDGATVCVTTRGDIYLLADYQCKKMASKQLNLKKVLVSGGHMEYKVDPEHLKENGGQKICILAMDGAGRVFCWRSVNSSLKQCRWAYPRQVFISDIALNRNEILFVTQDGEGFRGRWFEEKRKSSEKKEILSNLHNSSSDVSYVSDINSVYERIRLEKLTFAHRAVSVSTDPSGCNFAILQSDPKTSLYEIPAVSSSSFFEEFGKLLREADEMDSIESQNVDFICSVLVVADQLLITRLKEICEVALTEKLTLKNAAMLLEFAAMYSAKQLKLSCLQFIGLNMAALLEARSLDVLSDGVLKDLSEFYRKMIPAMDRRVITPYQDGPDISYLEVEDGDIFLKEEINMEQNHSETMFKKAKTKAKKKPRKRSDSSGGYNLSDIIQSPSSTGLLKSGKTNSVESLPELLTSDSEGSYAGVGSPRDLQSPDFTTGFHSDKIEAKVKPYVNGTSPVYSREDLKPWEKSPILKISAPQPIPSNRIDTTSSASWVAGSFSPVSPPVVDLRTIMEIEESRQKCGATPKSHLGKTVSHGVKLSQKQRKMIALTTKENNSGMNSMETVLFTPSKAPKPVNAWASSLHSVSSKSFRDFLLEEKKSVTSHSSGDHVKKVSFKGIENSQAPKIVRCSTHGTPGPEGNHISDLPLLDSPNPWLSSSVTAPSMVAPVTFASIVEEELQQEAALIRSREKPLALIQIEEHAIQDLLVFYEAFGNPEEFVIVERTPQGPLAVPMWNKHG
  binding: binds

B4: IBtkαΔC-FLAG (aa 1–890) (domain or fragment, UniProt Q9P2D0 1-890)
chain: MSSPMPDCTSKCRSLKHALDVLSVVTKGSENQIKAFLSSHCYNAATIKDVFGRNALHLVSSCGKKGVLDWLIQKGVDLLVKDKESGWTALHRSIFYGHIDCVWSLLKHGVSLYIQDKEGLSALDLVMKDRPTHVVFKNTDPTDVYTWGDNTNFTLGHGSQNSKHHPELVDLFSRSGIYIKQVVLCKFHSVFLSQKGQVYTCGHGPGGRLGHGDEQTCLVPRLVEGLNGHNCSQVAAAKDHTVVLTEDGCVYTFGLNIFHQLGIIPPPSSCNVPRQIQAKYLKGRTIIGVAAGRFHTVLWTREAVYTMGLNGGQLGCLLDPNGEKCVTAPRQVSALHHKDIALSLVAASDGATVCVTTRGDIYLLADYQCKKMASKQLNLKKVLVSGGHMEYKVDPEHLKENGGQKICILAMDGAGRVFCWRSVNSSLKQCRWAYPRQVFISDIALNRNEILFVTQDGEGFRGRWFEEKRKSSEKKEILSNLHNSSSDVSYVSDINSVYERIRLEKLTFAHRAVSVSTDPSGCNFAILQSDPKTSLYEIPAVSSSSFFEEFGKLLREADEMDSIHDVTFQVGNRLFPAHKYILAVHSDFFQKLFLSDGNTSEFTDIYQKDEDSAGCHLFVVEKVHPDMFEYLLQFIYTDTCDFLTHGFKPRIHLNKNPEEYQGTLNSHLNKVNFHEDDNQKSAFEVYKSNQAQTVSERQKSKPKSCKKGKNIREDDPVRMLQTVAKKFDFSNLSSRLDGVRFENEKINVIAKNTGNKLKLSQKKCSFLCDVTMKSVDGKEFPCHKCVLCARLEYFHSMLSSSWIEASSCAALEMPIHSDILKVILDYLYTDEAVVIKESQNVDFICSVLVVADQLLITRLKEICEVALTEKLTLKNAAMLLEFAAMYSAKQ
  binding: no binding
